# According to publication PMC12374821:
# Protein sequences, listed by entry. Tags and fused reporters are not part of them.
# UniProt P61073: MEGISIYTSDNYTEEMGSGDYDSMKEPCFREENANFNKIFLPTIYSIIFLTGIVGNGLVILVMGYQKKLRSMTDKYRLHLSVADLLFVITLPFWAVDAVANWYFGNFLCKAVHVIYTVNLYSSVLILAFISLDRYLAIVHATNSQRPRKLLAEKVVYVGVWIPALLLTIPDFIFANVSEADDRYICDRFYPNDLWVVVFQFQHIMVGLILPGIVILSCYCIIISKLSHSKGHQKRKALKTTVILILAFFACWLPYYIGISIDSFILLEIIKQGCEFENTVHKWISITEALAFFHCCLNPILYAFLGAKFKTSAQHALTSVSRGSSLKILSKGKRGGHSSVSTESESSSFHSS
# These are yes or no findings as the source states them, for the method shown. In cells and extracts the contact can be indirect. Some results given as binding are weak or reduced against the parent protein; the word gives no strength.
# B1: Polo-like kinase 4 (PLK4), endogenous (protein, UniProt O00444 1-970)
# chain: MATCIGEKIEDFKVGNLLGKGSFAGVYRAESIHTGLEVAIKMIDKKAMYKAGMVQRVQNEVKIHCQLKHPSILELYNYFEDSNYVYLVLEMCHNGEMNRYLKNRVKPFSENEARHFMHQIITGMLYLHSHGILHRDLTLSNLLLTRNMNIKIADFGLATQLKMPHEKHYTLCGTPNYISPEIATRSAHGLESDVWSLGCMFYTLLIGRPPFDTDTVKNTLNKVVLADYEMPSFLSIEAKDLIHQLLRRNPADRLSLSSVLDHPFMSRNSSTKSKDLGTVEDSIDSGHATISTAITASSSTSISGSLFDKRRLLIGQPLPNKMTVFPKNKSSTDFSSSGDGNSFYTQWGNQETSNSGRGRVIQDAEERPHSRYLRRAYSSDRSGTSNSQSQAKTYTMERCHSAEMLSVSKRSGGGENEERYSPTDNNANIFNFFKEKTSSSSGSFERPDNNQALSNHLCPGKTPFPFADPTPQTETVQQWFGNLQINAHLRKTTEYDSISPNRDFQGHPDLQKDTSKNAWTDTKVKKNSDASDNAHSVKQQNTMKYMTALHSKPEIIQQECVFGSDPLSEQSKTRGMEPPWGYQNRTLRSITSPLVAHRLKPIRQKTKKAVVSILDSEEVCVELVKEYASQEYVKEVLQISSDGNTITIYYPNGGRGFPLADRPPSPTDNISRYSFDNLPEKYWRKYQYASRFVQLVRSKSPKITYFTRYAKCILMENSPGADFEVWFYDGVKIHKTEDFIQVIEKTGKSYTLKSESEVNSLKEEIKMYMDHANEGHRICLALESIISEEERKTRSAPFFPIIIGRKPGSTSSPKALSPPPSVDSNYPTRERASFNRMVMHSAASPTQAPILNPSMVTNEGLGLTTTASGTDISSNSLKDCLPKSAQLLKSVFVKNVGWATQLTSGAVWVQFNDGSQLVVQAGVSSISYTSPNGQTTRYGENEKLPDYIKQKLQCLSSILLMFSNPTPNFH
# B2: PLK4, overexpressed (exogenous) in SH-SY5Y cells (protein, UniProt O00444 1-970)
# chain: B1 chain
# What was measured:
# [1] = target: T1, Polo-like kinase 4 (PLK4), endogenous (human (endogenous in SK-N-SH and IMR-32)) (UniProt O00444); assay: co-IP; lysates of SK-N-SH and IMR-32 cells, endogenous proteins; primary antibody overnight at 4°C, protein A/G Dynabeads, normal IgG as control; co-IP and reciprocal co-IP, western blot
# T1 sequence: B1 chain
# [2] = target: C-X-C chemokine receptor type 4 (CXCR4), endogenous (human (endogenous in SK-N-SH, IMR-32 and SH-SY5Y)) (UniProt P61073); assay: as above
# [3] = target: C-X-C chemokine receptor type 4 (CXCR4), endogenous (human (endogenous in SK-N-SH, IMR-32 and SH-SY5Y)) (UniProt P61073); assay: co-IP; lysates of SH-SY5Y cells overexpressing PLK4; primary antibody overnight at 4°C, protein A/G Dynabeads, normal IgG as control; western blot
molecule,measurement,setting,value
"C-X-C chemokine receptor type 4 (CXCR4), endogenous (from UniProt P61073 1-352)",binding,[1],binds
B1,binding,[2],binds
B2,binding,[3],binds
